# Laboratory results from PubChem BioAssay AID445 (National Center for Advancing Translational Sciences (NCATS), 2006).
# This is one part of the list. These are further read-outs of the screen, such as a control signal, another cell line or another target. No call is given for them. The list favours compounds with an active or inconclusive main result. Words in brackets tell the shape of the fitted curve; partial curves, single points and poor fits give uncertain potencies.
# Assay: IkB Signaling
# Conditions: ABC-DLBCL IkBa-CBG/CBR dual luciferase ratio (green luciferase fused to IkBa over red control in OCI-Ly3 lymphoma cells), 4 h
# Method in brief: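 Luminescence ratio of IκBα-fused green versus native red beetle luciferase in OCI-Ly3 cells, 4 h post-doxycycline with compound; red signal alone, scaled from basal (0%) to zero light (-100%), flagged nonspecific or cytotoxic effects.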
# [1] = measured here: control luc red channel unless noted
structure (smiles),measurement,setting,value
CCCCSCCCNC(=O)c1cn(CC)c2ccc(S(=O)(=O)N3CCOCC3)cc2c1=O,AC50,[1],"20 µM [falling, single point]"
COc1ccc(S(=O)(=O)N2CCC(C(=O)Nc3ccc(Oc4ccccc4)cc3)CC2)cc1OC,AC50,[1],"7.94 µM [falling, partial curve]"
COc1ccc(C(CNC(=O)COc2cc(C)c(Cl)c(C)c2)N2CCCCC2)cc1 (stereo unspecified),AC50,[1],"1.58 µM [falling, partial curve]"
O=C(Nc1nsc(-c2ccccc2)n1)c1ccncc1,AC50,[1],"20 µM [falling, single point]"
O=C(CSc1nc(=O)n(Cc2ccncc2)c2c1CCC2)Nc1ccccc1,AC50,[1],"39.8 µM [falling, single point]"
COc1cccc(CNC(=O)CCc2c(C)c3cc4c(C)coc4cc3oc2=O)c1,AC50,[1],"25.1 µM [falling, partial curve]"
CCCN(CCC)C(=O)c1c[nH]c2ccc(S(=O)(=O)N(C)c3ccc(Cl)cc3)cc2c1=O,AC50,[1],"12.6 µM [falling, partial curve]"
CCCCOC(=O)c1ccc(NC(=O)C2(c3cccs3)CCOCC2)cc1,AC50,[1],"20 µM [falling, partial curve, poor fit]"
COc1ccc(NC(=O)CSc2nc(-c3ccccc3)cc(-c3cc(OC)c(OC)c(OC)c3)c2C#N)c(OC)c1,AC50,[1],"5.01 µM [falling, full curve]"
COc1ccccc1-c1cc(C(=O)Nc2c(C)nn(Cc3ccc(Cl)cc3)c2C)no1,AC50,[1],"3.98 µM [falling, full curve]"
O=C(NCc1ccco1)c1cc2ccc(O)cc2oc1=O,AC50,[1],"12.6 µM [falling, partial curve]"
CCCCN(CCCNC(=O)c1cc(Nc2ccc(OC)cc2OC)nc2ccccc12)Cc1ccccc1,AC50,[1],"15.8 µM [falling, partial curve]"
Cc1nc2ccccc2c2oc(C(=O)N3CCc4ccccc4C3)cc12,AC50,measured here: IkB-luc green channel,"10 µM [falling, partial curve]"
same,AC50,measured here: control luc red channel,"7.94 µM [falling, partial curve]"
COc1ccccc1N1CCN(S(=O)(=O)CCNC(=O)c2cc(=O)c3ccccc3o2)CC1,AC50,[1],"10 µM [falling, partial curve]"
COc1ccc(C(=O)c2cn(Cc3ccc(F)cc3)c3c(F)cc(F)cc3c2=O)cc1,AC50,[1],"39.8 µM [falling, single point]"
O=C(C1COc2cc(S(=O)(=O)Nc3ccc(Cl)cc3)ccc2O1)N1CCCC1 (stereo unspecified),AC50,[1],"5.01 µM [falling, single point]"
COc1cccc(C2C(C#N)=C(N)OC3=C2C(=O)CC(c2ccco2)C3)c1OCc1ccc(F)cc1 (stereo unspecified),AC50,[1],"5.01 µM [falling, partial curve]"
COc1ccccc1N1CCN(C(=O)CSc2nc(C)c(Cc3ccccc3)c(=O)[nH]2)CC1,AC50,[1],"25.1 µM [falling, partial curve]"
CCc1ccccc1N(C)C(=O)c1cc2c(s1)-c1c(C)cccc1OC2,AC50,[1],"1.58 µM [falling, full curve]"
COc1ccc(CCNc2nc(-c3sc(N)nc3C)cs2)cc1OC,AC50,[1],"15.8 µM [falling, partial curve]"
COc1cc(C2C(C(=O)Nc3ccccc3)=C(C)Nc3nc(SCC(=O)c4ccc(C)cc4)nn32)ccc1O (stereo unspecified),AC50,[1],"0.0631 µM [falling, full curve, poor fit]"
O=C(CSc1nnnn1-c1ccc2c(c1)CCC2)Nc1ccc2c(c1)OCCO2,AC50,[1],"15.8 µM [falling, partial curve]"
CC(C)NS(=O)(=O)c1ccc(OCC(=O)N2CCN(c3cccc(Cl)c3)CC2)cc1,AC50,[1],"39.8 µM [falling, single point]"
CCc1ccc(S(=O)(=O)c2nnn3c2nc(N2CCN(CC)CC2)c2sccc23)cc1,AC50,[1],"39.8 µM [falling, single point]"
CCOC(=O)c1ccc(N2C(=O)c3n[nH]c(-c4ccco4)c3C2c2cccc(F)c2)cc1 (stereo unspecified),AC50,[1],"20 µM [falling, partial curve]"
CCC(=O)N1CCc2cc(S(=O)(=O)NC(Cc3ccccc3)C(=O)Nc3ccc(Cl)cc3)ccc21 (stereo unspecified),AC50,[1],"3.16 µM [falling, full curve]"
O=C(CSc1nc(-c2ccccc2)[nH]c1-c1ccc(F)cc1)NC1CCCC1,AC50,[1],"15.8 µM [falling, partial curve]"
COc1ccc(CCNC(=O)c2cc3cccc4c3n2CC(C)S4)c(OC)c1OC (stereo unspecified),AC50,[1],"15.8 µM [falling, partial curve]"
CCCC(=O)Nc1c(C(=O)N2CCN(c3ccccc3)CC2)oc2ccccc12,AC50,[1],"15.8 µM [falling, partial curve]"
CCc1ccccc1NC(=O)C1=CC(c2ccc3c(c2)OCO3)=NS(=O)(=O)N1C,AC50,[1],"39.8 µM [falling, single point]"
COc1ccccc1C(=O)CC1(O)C(=O)N(CC(N)=O)c2ccccc21 (stereo unspecified),AC50,[1],"7.94 µM [rising, partial curve, poor fit]"
CC(C)(C)c1ccc(C(=O)Nc2ccc3nc(SCC(=O)N4CCCC4)sc3c2)cc1,AC50,[1],"3.98 µM [falling, full curve]"
O=C(CN1C(=O)COc2ccc(S(=O)(=O)N3CCCCCC3)cc21)N1CCN(c2cccc(Cl)c2)CC1,AC50,[1],"12.6 µM [falling, partial curve]"
O=C(CSc1nnc(Cn2c(=O)sc3ccccc32)n1-c1ccccc1)Nc1nccs1,AC50,[1],"10 µM [falling, partial curve]"
Cc1cccc(N2CCN(C(=O)CCNS(=O)(=O)c3ccc4c(c3)CCN4C(=O)C3CC3)CC2C)c1 (stereo unspecified),AC50,[1],"39.8 µM [falling, partial curve]"
Cc1cccc(C(=O)Nc2nc3c(s2)CCCC3)c1,AC50,[1],"3.16 µM [falling, partial curve]"
c1ccc(CNc2ncnc3[nH]ncc23)cc1,AC50,[1],"3.16 µM [rising, single point]"
CSc1ccc(CCNC(=O)c2ccc3c(c2)nc2n3CCC(C)C2)cc1 (stereo unspecified),AC50,[1],"2.51 µM [falling, partial curve, poor fit]"
Cc1c2c(n3c(nc4ccccc43)c1C#N)N(Cc1ccccn1)CC2,AC50,[1],"12.6 µM [falling, partial curve]"
CCOCCc1nn2c(=O)cc(COC(=O)c3ccccc3NC(=O)c3cccs3)nc2s1,AC50,[1],"1.26 µM [rising, full curve, poor fit]"
COc1ccc(N2CCN(C(=O)c3c(C)nn(-c4ccc(F)cc4)c3-n3cccc3)CC2)cc1,AC50,[1],"12.6 µM [falling, partial curve]"
O=C(C1CCCN(S(=O)(=O)c2cccs2)C1)N1CCN(c2ccccc2F)CC1 (stereo unspecified),AC50,[1],"25.1 µM [falling, partial curve]"
Cc1ccc(CN(Cc2cccn2-c2nnc(N3CCCC3=O)s2)C(=O)Nc2cc(C)cc(C)c2)cc1,AC50,[1],"12.6 µM [falling, partial curve, poor fit]"
COc1ccc(-c2nc3c(c(SCC(=O)Nc4cc(C)cc(C)c4)n2)Cc2c(CO)cnc(C)c2O3)cc1,AC50,[1],"0.158 µM [rising, full curve, poor fit]"
C[C@@H]1C[C@@H]2[C@H]3CCC4=CC(=O)C=C[C@]4(C)[C@]3(Cl)[C@@H](O)C[C@@]2(C)[C@@]1(O)C(=O)CO,AC50,[1],"7.94 nM [rising, full curve] [measured here: IkB-luc green channel]"
COc1ccc(-c2cc(-n3c(C(F)(F)F)nc4ccccc43)n(CCC#N)n2)cc1,AC50,[1],"15.8 µM [falling, partial curve]"
CCOc1ccc(-n2c(-c3ccc(OC)cc3)cc3c2CC(C)(C)CC3=O)cc1,AC50,[1],"15.8 µM [falling, partial curve]"
CCOc1ccc(NCc2cccn2-c2nnc(N3CCC(C(=O)NC(C)c4ccccc4)CC3)s2)cc1 (stereo unspecified),AC50,[1],"39.8 µM [falling, single point]"
CC1CCc2c(sc3nnn(CC(=O)Nc4cccc(C(F)(F)F)c4)c(=O)c23)C1 (stereo unspecified),AC50,[1],"15.8 µM [falling, partial curve]"
COc1ccc(CNC(=O)c2cc(-c3ccccc3OC)on2)cc1,AC50,[1],"5.01 µM [falling, partial curve]"
Cn1nnc2cc(C(=O)NCCC3=CCCCC3)ccc21,AC50,[1],"0.501 µM [rising, full curve]"
CCN1C(C(=O)c2ccccc2)=C(OC(=O)c2ccc(Cl)cc2)c2ccccc2S1(=O)=O,AC50,[1],"12.6 µM [falling, partial curve]"
CCc1ccc2oc(-c3cccc(NC(=O)c4ccc(-c5cccc([N+](=O)[O-])c5)o4)c3)nc2c1,AC50,[1],"1.58 µM [falling, full curve]"
Cc1cccc(OC(C)C(=O)N2CCC(c3nc4ccccc4o3)CC2)c1C (stereo unspecified),AC50,[1],"12.6 µM [falling, partial curve]"
CCOC(=O)c1cccc(NC(=O)N2Cc3ccccc3Oc3ncccc32)c1,AC50,[1],"25.1 µM [falling, single point]"
CCOc1cccc(NC(=O)CSc2ncc(-c3ccc(Cl)cc3)[nH]2)c1,AC50,[1],"7.94 µM [falling, partial curve]"
Cc1ccc(OCCSc2nc3ccccc3n2CCC(=O)O)cc1C,AC50,[1],"12.6 µM [falling, partial curve]"
CCN1CCN(C(c2ccc(Cl)cc2)c2c(O)cc(C)n(CCOC)c2=O)CC1 (stereo unspecified),AC50,[1],"39.8 µM [falling, single point]"
COc1ccccc1-c1nnc(SC/C(O)=C(\C#N)c2nc3ccccc3[nH]2)n1C1CCCCC1,AC50,[1],"0.631 µM [falling, full curve]"
CCCCn1cnc2cc(NC(=O)c3cc(OC)c(OC)c(OC)c3)ccc21,AC50,[1],"15.8 µM [falling, single point]"

# Some of the entries so far, with bars between the fields:
structure (smiles) | measurement | setting | value
COc1ccc(C(CNC(=O)COc2cc(C)c(Cl)c(C)c2)N2CCCCC2)cc1 (stereo unspecified) | AC50 | [1] | 1.58 µM [falling, partial curve]
O=C(C1COc2cc(S(=O)(=O)Nc3ccc(Cl)cc3)ccc2O1)N1CCCC1 (stereo unspecified) | AC50 | [1] | 5.01 µM [falling, single point]
